# The list shows a part of the results.
# The chains behind the UniProt entries cited, without tags or fusion partners. Where a name states a change or a piece, a line headed by the entry shows the natural chain unless it says otherwise.
# UniProt Q9UMZ2: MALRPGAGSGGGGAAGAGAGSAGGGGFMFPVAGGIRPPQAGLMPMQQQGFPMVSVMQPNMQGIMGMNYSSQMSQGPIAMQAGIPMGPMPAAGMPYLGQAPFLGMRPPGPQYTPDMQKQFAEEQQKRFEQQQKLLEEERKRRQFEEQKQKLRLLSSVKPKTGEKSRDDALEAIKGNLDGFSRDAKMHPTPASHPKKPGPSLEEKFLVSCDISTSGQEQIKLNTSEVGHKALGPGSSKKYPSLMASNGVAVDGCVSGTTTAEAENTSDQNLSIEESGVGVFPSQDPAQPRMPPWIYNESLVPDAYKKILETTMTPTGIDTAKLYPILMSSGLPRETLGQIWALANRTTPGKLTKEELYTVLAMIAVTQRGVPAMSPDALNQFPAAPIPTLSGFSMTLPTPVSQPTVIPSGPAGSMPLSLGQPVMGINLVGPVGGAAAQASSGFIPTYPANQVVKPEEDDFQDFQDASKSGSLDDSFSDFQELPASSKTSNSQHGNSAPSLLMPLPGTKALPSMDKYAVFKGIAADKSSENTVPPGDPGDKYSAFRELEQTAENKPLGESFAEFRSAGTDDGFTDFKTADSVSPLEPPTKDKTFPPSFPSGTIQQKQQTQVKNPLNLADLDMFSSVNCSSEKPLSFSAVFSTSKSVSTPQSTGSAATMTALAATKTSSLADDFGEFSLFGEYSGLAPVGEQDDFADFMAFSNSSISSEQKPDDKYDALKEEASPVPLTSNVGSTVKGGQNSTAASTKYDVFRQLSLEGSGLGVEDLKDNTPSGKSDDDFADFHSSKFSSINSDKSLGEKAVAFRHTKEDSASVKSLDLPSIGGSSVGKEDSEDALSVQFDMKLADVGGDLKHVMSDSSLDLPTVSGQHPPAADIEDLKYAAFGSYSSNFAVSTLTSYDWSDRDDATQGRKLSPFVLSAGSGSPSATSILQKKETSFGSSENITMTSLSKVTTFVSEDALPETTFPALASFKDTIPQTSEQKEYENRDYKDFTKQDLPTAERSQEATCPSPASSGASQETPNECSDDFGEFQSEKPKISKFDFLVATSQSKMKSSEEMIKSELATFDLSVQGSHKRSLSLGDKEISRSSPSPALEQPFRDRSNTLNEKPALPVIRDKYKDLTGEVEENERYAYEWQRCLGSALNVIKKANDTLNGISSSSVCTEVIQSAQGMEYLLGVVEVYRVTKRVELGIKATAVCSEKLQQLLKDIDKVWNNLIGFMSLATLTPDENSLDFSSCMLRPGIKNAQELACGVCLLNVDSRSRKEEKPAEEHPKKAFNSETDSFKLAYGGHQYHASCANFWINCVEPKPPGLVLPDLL
# UniProt Q8IYB8: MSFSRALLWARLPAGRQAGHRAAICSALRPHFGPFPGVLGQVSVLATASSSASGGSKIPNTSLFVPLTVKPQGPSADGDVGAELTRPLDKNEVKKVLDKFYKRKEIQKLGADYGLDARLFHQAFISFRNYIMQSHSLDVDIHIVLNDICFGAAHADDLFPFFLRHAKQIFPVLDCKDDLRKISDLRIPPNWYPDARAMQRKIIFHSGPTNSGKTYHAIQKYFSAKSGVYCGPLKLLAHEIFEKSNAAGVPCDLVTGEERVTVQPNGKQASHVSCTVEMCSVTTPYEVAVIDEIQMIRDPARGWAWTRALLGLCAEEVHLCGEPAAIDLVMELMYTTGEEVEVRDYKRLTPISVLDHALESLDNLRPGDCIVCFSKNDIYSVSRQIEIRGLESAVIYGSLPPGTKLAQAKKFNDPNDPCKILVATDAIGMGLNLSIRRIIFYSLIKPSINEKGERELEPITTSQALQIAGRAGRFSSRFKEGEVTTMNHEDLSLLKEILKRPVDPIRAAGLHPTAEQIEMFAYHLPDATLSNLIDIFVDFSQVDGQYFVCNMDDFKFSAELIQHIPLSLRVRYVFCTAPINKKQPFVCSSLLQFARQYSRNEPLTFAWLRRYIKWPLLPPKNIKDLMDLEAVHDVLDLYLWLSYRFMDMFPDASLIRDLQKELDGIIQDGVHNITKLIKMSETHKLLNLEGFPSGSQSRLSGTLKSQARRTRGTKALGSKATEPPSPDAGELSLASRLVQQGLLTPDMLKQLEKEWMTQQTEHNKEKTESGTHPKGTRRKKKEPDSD
# UniProt Q9UNE7: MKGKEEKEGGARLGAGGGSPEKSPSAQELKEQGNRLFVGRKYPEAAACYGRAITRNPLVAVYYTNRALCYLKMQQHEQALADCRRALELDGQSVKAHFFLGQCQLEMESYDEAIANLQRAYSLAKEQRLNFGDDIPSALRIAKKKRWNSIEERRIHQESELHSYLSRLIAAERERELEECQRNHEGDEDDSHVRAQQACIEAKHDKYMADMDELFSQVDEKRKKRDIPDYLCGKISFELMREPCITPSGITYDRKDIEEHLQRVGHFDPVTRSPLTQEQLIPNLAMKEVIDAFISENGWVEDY
# UniProt O14662: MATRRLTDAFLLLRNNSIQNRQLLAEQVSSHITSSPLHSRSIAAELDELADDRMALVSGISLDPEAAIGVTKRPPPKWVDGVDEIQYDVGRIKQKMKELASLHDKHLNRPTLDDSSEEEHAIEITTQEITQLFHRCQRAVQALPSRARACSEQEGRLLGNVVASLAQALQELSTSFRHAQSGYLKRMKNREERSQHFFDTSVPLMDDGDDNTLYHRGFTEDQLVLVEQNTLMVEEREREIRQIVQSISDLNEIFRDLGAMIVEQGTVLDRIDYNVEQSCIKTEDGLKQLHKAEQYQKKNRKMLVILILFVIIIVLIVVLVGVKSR
# UniProt P16949: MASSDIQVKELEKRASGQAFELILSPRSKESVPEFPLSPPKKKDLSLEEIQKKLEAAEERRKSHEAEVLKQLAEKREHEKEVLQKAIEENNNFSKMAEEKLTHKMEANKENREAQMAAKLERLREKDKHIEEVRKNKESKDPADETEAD
# UniProt Q92804: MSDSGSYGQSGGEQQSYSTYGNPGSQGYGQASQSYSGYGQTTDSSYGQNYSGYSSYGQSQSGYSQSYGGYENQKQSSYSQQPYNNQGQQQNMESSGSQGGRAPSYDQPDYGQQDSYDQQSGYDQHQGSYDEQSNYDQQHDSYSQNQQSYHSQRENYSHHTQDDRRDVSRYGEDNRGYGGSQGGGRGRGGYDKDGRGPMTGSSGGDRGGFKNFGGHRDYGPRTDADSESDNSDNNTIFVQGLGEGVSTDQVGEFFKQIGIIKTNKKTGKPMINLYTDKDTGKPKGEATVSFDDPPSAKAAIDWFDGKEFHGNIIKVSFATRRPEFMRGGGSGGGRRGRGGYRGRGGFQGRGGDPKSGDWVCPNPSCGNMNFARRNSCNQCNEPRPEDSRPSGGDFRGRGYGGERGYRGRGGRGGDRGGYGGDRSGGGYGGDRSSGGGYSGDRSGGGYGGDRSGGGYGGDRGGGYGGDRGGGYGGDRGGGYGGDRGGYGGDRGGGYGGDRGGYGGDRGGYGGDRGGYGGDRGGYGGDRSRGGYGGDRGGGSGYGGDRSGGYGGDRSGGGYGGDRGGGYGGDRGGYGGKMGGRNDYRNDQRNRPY
# UniProt Q96SI9: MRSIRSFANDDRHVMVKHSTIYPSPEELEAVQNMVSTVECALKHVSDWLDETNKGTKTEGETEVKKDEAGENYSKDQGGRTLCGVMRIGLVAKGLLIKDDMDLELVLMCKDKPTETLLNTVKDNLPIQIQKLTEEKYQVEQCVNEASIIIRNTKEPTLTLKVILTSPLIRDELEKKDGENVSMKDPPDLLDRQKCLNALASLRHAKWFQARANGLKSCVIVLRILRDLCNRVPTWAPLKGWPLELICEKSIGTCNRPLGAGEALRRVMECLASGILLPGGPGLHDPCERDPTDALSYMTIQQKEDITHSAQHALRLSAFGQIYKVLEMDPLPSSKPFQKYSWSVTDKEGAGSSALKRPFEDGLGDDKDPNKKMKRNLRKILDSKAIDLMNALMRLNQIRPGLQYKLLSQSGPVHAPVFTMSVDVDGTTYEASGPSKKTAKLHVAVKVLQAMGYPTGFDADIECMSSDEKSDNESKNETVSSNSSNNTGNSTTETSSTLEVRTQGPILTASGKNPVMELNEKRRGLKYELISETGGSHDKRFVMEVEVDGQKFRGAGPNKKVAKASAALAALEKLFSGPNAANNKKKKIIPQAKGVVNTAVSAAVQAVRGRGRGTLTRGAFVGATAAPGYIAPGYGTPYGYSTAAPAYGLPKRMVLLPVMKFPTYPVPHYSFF
# UniProt Q01995: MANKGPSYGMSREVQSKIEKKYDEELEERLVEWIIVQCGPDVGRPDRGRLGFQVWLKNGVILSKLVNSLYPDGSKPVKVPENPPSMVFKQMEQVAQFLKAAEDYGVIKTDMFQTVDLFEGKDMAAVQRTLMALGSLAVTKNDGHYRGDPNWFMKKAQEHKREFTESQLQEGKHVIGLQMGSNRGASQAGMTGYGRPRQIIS
# UniProt P37802: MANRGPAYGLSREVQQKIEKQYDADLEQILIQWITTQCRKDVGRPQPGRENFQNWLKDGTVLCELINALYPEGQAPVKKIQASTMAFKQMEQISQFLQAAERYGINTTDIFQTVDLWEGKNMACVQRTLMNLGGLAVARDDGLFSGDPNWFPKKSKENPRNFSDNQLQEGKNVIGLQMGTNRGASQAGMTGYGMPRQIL
# UniProt Q17R31: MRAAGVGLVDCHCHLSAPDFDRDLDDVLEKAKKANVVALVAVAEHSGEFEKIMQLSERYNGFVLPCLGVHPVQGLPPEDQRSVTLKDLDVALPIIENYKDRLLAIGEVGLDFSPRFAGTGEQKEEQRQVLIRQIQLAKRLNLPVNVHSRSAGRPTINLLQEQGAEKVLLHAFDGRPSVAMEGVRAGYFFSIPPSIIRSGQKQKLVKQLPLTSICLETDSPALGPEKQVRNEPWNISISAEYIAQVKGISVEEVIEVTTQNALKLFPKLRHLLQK
# UniProt Q7Z422: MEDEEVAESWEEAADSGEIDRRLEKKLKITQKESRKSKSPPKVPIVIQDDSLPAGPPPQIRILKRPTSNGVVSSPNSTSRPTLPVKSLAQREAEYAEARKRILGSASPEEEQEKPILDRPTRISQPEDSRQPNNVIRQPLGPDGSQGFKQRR
# UniProt O75528: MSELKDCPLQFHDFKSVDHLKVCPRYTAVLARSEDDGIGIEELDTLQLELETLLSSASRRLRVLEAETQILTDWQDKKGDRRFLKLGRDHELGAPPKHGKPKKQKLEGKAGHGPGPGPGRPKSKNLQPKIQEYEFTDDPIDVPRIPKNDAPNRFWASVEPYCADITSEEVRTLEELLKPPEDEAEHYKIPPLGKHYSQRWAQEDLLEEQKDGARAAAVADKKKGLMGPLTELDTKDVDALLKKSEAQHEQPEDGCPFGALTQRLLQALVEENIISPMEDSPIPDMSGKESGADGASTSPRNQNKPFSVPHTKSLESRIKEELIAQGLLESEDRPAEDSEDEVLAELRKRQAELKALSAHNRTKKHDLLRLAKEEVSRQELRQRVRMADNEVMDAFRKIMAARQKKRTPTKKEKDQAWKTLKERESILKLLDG
# UniProt Q6P1X5, whole entry, looked up: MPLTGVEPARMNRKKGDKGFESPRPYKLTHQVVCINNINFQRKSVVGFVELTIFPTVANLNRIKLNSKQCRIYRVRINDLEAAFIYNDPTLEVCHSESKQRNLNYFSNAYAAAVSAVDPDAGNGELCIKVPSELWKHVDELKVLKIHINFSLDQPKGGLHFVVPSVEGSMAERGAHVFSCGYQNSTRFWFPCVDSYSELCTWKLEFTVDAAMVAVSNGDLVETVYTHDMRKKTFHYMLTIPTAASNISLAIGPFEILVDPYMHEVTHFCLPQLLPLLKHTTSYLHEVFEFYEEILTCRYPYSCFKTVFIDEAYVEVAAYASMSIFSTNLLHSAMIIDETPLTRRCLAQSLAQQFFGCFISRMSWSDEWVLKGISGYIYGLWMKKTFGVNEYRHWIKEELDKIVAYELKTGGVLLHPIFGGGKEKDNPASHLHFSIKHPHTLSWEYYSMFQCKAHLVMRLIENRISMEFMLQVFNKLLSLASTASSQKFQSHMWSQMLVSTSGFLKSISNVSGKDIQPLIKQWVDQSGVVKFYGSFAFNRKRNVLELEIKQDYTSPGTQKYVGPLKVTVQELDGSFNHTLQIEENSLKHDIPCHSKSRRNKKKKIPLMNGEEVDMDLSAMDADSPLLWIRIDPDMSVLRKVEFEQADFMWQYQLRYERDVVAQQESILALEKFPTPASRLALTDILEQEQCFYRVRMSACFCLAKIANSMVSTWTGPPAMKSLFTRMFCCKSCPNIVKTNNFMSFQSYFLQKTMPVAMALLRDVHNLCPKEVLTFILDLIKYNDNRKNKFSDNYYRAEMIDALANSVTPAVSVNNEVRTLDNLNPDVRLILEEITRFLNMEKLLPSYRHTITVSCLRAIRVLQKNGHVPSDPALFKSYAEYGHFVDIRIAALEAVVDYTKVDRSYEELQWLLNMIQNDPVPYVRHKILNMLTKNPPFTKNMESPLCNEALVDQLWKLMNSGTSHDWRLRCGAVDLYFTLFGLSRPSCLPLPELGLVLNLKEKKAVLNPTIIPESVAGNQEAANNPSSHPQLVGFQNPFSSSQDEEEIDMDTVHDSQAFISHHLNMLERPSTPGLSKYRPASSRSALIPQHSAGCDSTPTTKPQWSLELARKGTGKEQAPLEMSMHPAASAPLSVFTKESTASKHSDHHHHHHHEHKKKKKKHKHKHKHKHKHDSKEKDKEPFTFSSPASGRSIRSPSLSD
# Compound: c1cn2cc(-c3ccc4cn[nH]c4c3)nc(Nc3ccc(N4CCOCC4)cc3)c2n1 [entospletinib]
# Assay: log2 fold change, soluble protein after heating vs DMSO (PISA); higher = thermal stabilisation; K562 cells, 10 uM, 30 min; active = over 0.2 and 3.5 SD of the protein, either way, in both replicates (recomputed)
# In short: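 Soluble protein was quantified by TMTpro 16plex LC-MS/MS after channel sums were equalised. It was obtained as the supernatant after 21,000xg for 90 min from pooled aliquots of K562 cells (2×10^6 cells/mL, 10 μM compound, 30 min) heated for 3 min across 48°C-58°C and extracted in PBS with 0.5% NP-40 at 4°C. Thermal stability values are relative to control samples and come from duplicates. They are given as log2 fold changes.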
row,Target,log2 fold change
1,SUGT1 isoform 2 (UniProt Q9Y2Z0),inactive: 0.102
2,SYNRG (UniProt Q9UMZ2),inactive: -0.008
3,SUPV3L1 (UniProt Q8IYB8),inactive: 0.01
4,STUB1 (UniProt Q9UNE7),inactive: 0.183
5,STT3B (UniProt Q8TCJ2),inactive: -0.016
6,STX3 (UniProt Q13277),inactive: -0.036
7,STX16 isoform 2 (UniProt O14662),inactive: 0.048
8,SURF6 (UniProt O75683),inactive: 0.011
9,STMN1 (UniProt P16949),inactive: -0.036
10,STK3 isoform 2 (UniProt Q13188),inactive: 0.004
11,STX10 (UniProt O60499),inactive: 0.194
12,TAF15 (UniProt Q92804),inactive: 0.097
13,SUPT6H (UniProt Q7KZ85),inactive: 0.068
14,SUCO (UniProt Q9UBS9),inactive: 0.06
15,SYNGR2 (UniProt O43760),inactive: 0.018
16,STRBP (UniProt Q96SI9),inactive: 0.068
17,TAGLN (UniProt Q01995),inactive: 0.018
18,TAGLN2 isoform 2 (UniProt P37802),inactive: 0.038
19,STRIP2 (UniProt Q9ULQ0),inactive: -0.128
20,TATDN3 isoform 3 (UniProt Q17R31),inactive: -0.006
21,SUCLG2 (UniProt Q96I99),inactive: -0.048
22,TBC1D13 (UniProt Q9NVG8),inactive: -0.012
23,SZRD1 (UniProt Q7Z422),inactive: 0.011
24,SULT1A3 isoform 3 (UniProt P0DMM9),inactive: 0.041
25,TADA3 (UniProt O75528),inactive: 0.003
26,TAPBP isoform 3 (UniProt O15533),inactive: -0.145
27,STXBP3 (UniProt O00186),inactive: 0.059
28,TAF2 (UniProt Q6P1X5),inactive: 0.072
29,STX6 (UniProt O43752),inactive: -0.005

# For convenience, some entries already given:
row,Target,log2 fold change
1,SUGT1 isoform 2 (UniProt Q9Y2Z0),inactive: 0.102
2,SYNRG (UniProt Q9UMZ2),inactive: -0.008

# Source: the supplement of paper PMC10849652
